We go through 86 compounds from the supplement of paper PMC7858590.

± gives the standard deviation of the averaged measurements. Over roughly 3,800 compounds, “cell shape (eccentricity) Z-score vs DMSO control” has its median near 1.1; the lowest 2% begin near -4.7. This is one part of the list.

The assay relates to human monocyte-derived macrophages (M0). As to the kind of experiment: cell shape (eccentricity) Z-score vs DMSO control; higher = more elongated, M2-like morphology. Conditions: 20 µM; 24 h; macrophage state: M0 (M-CSF).
On to `Cc1ccc(-c2ncc(Cl)cc2-c2ccc(S(C)(=O)=O)cc2)cn1`, for which the “cell shape (Z-score)” value is -0.727. For the compound `COC(=O)C1=CO[C@@H](O[C@@H]2O[C@H](CO)[C@@H](O)[C@H](O)[C@H]2O)[C@@H]2[C@@](C)(O)[C@@H](O)C[C@]12O`, the “cell shape (Z-score)” value turned out to be 1.24. For `N#Cc1cc2nc(O)c(O)nc2cc1[N+](=O)[O-]` the value was -1.55; for `Nc1ccc(S(=O)(=O)c2ccc(N)cc2)cc1`, 3.62; for `O=C(O)c1c(O)cc(OC2OC(CO)C(O)C(O)C2O)cc1/C=C/c1ccccc1` (stereo unspecified), 4.21. For `OC(c1ccccc1)C1CCN(CCc2ccccc2)CC1` (stereo unspecified) the value was 1.31; for `CC(C)(O)CC[C@@H](O)[C@](C)(O)[C@H]1CC[C@@]2(O)C3=CC(=O)[C@@H]4C[C@@H](O)[C@@H](O)C[C@]4(C)C3CC[C@]12C` (stereo partly specified), 1.59.

Turning to `COC1=CC(=O)O[C@@H](CCc2ccccc2)[C@H]1O`, the “cell shape (Z-score)” value amounted to 0.785 ± 1.3. For `COc1ccc(-c2cc(=O)c3c(O)cc(O)cc3o2)cc1O` the value was 5.34. For `CN(C)CCCN1c2ccccc2CCc2ccc(Cl)cc21`, the “cell shape (Z-score)” value stood at 1.86. In the case of `CC(C)=CCc1c2c(c3occ(-c4ccc(O)c(O)c4)c(=O)c3c1O)C=CC(C)(C)O2`, the “cell shape (Z-score)” value is 0.747. As to `O=c1cc(-c2ccc(O)c(O)c2)oc2cc(O)c(C3OC(CO)C(O)C(O)C3O)c(O)c12` (stereo unspecified), the “cell shape (Z-score)” value is -0.519.

For `CC(C)=CCC/C(C)=C/CCC1(C)Oc2c(c(O)cc3c2CN(C(CCC(=O)O)C(=O)O)C3=O)CC1O` (stereo unspecified), the “cell shape (Z-score)” value was found to be 0.11.

On to `COc1cc(C2OCC3(OC4OC(CO)C(O)C(O)C4O)C(c4ccc(O)c(OC)c4)OCC23)ccc1O` (stereo unspecified), for which the “cell shape (Z-score)” value was found to be 3.4. Next, `CC(C)(O)CCC(=O)C(C)(O)C1C(O)CC2(C)C3CC=C4C(CC(O)C(OC5OC(CO)C(O)C(O)C5O)C4(C)C)C3(C)C(=O)CC12C` (stereo unspecified): -2.09. In the case of `O=C1CN2Cc3c(ccc(Cl)c3Cl)N=C2N1`, the “cell shape (Z-score)” value was -1.23. Next, `CC1=CC(=O)C(C(C)C)=CC1=O`: -0.564. As to `O=[N+]([O-])c1cccc2cn[nH]c12`, the “cell shape (Z-score)” value was 4.42.

For `CC(C)CC1NC(=O)C2CCCN2C1=O` (stereo unspecified), the “cell shape (Z-score)” value was determined as 2.84. On to `Cc1onc(-c2ccccc2Cl)c1C(=O)N[C@@H]1C(=O)N2[C@@H]1SC(C)(C)[C@@H]2C(=O)O`, for which the “cell shape (Z-score)” value came out at 7.79. As to `C[C@]12CCC3c4ccc(O)cc4CCC3C1CC[C@@H]2OC(=O)CCC1CCCC1` (stereo partly specified), the “cell shape (Z-score)” value worked out at 2.17.

Take `COC(=O)C1CC2=CC(=O)CCC2(C)C23OC2CC2(C)C(CCC24CCC(=O)O4)C13` (stereo unspecified): the “cell shape (Z-score)” value came to 0.516.

For the compound `O=C1OC(c2ccc(O)cc2)(c2ccc(O)cc2)c2ccccc21`, the “cell shape (Z-score)” value came out at 1.01.

`CC(=Cc1ccc(C(=O)O)cc1)c1ccc2c(c1)C(C)(C)CCC2(C)C`: the “cell shape (Z-score)” value was 7.79. For `Nc1ncnc(Nc2ccc(Cl)cc2)n1` the value was 1.09. Next, `COc1ccc(/C=C/C(=O)O[C@@H]2[C@@H](O)[C@@H](O)[C@H](O[C@H]3[C@@H]4C=CO[C@@H](O[C@@H]5O[C@H](CO)[C@@H](O)[C@H](O)[C@H]5O)[C@@H]4[C@@]4(CO)O[C@@H]34)O[C@H]2C)cc1`: -1.63; `CN/C(=C\[N+](=O)[O-])NCCSCc1ccc(CN(C)C)o1`: 1.62; `C[C@H]1CC2C([C@@H](O)C[C@@]3(C)C2CC[C@]3(O)C(=O)COC(=O)CCC(=O)O)[C@@]2(C)C=CC(=O)C=C12` (stereo partly specified): 0.0575.

On to `O=c1n(CCCN2CCN(c3cccc(Cl)c3)CC2)nc2ccccn12`, for which the “cell shape (Z-score)” value is -2.03. Turning to `CC(=O)OC[C@@]12C(=O)C[C@@H](C)[C@]3(C[C@@H](c4ccoc4)OC3=O)[C@H]1CC[C@H](O)[C@]21CO1`, the “cell shape (Z-score)” value was -1.02. For `CCN(CCO)CCCOc1ccc2c(Nc3cc(CC(=O)Nc4cccc(F)c4)[nH]n3)ncnc2c1`, the “cell shape (Z-score)” value amounted to 1.97. `CCCc1nc(C(C)(C)O)c(C(=O)OCc2oc(=O)oc2C)n1Cc1ccc(-c2ccccc2-c2nn[nH]n2)cc1`: the “cell shape (Z-score)” value was determined as 1.58. Next, `COc1c(O)cc2c(c1O)C(=O)OC(C)C2Oc1cc2c(c(O)c1OC)C(=O)OC(C)C2O` (stereo unspecified): 4.46. As to `O=C1C=CC(O)(/C=C/C(=O)OC[C@H]2O[C@@H](Oc3ccc(O)cc3)[C@H](O)[C@@H](OC(=O)/C=C/C3(O)C=CC(=O)C=C3)[C@@H]2O)C=C1`, the “cell shape (Z-score)” value is -1.44. Regarding `c1ccc(CNc2nc(NCc3ccccc3)c3ccccc3n2)cc1`, the “cell shape (Z-score)” value was 4.58.

Regarding `Nc1ncnc2nc(-c3ccc(N4CCOCC4)nc3)cc(-c3cccc(Br)c3)c12`, the “cell shape (Z-score)” value was 0.843. On to `CCCCCCCCCCCCCCCC(=O)NCCO`, for which the “cell shape (Z-score)” value was 0.0559.

Turning to `Cn1cnc([N+](=O)[O-])c1Sc1[nH]cnc2ncnc1-2`, the “cell shape (Z-score)” value amounted to 1.32. With `Cc1[nH]c2ccccc2c1C(Nc1ccccn1)c1ccc(Cl)cc1` (stereo unspecified), the “cell shape (Z-score)” value turned out to be 4.07. Consider `NC12CC3CC(CC(C3)C1)C2`, for which the “cell shape (Z-score)” value was found to be 0.0325. For `NC(=O)C1C(=O)C[C@@H]2C[C@@H]3Cc4cccc(O)c4C(=O)C3C(=O)[C@]2(O)C1=O` (stereo partly specified) the value was 3.39; for `COc1cc2nc(N(C)CCCNC(=O)C3CCCO3)nc(N)c2cc1OC` (stereo unspecified), 0.276; for `c1ccc(-c2nnc(N3CCOCC3)nc2-c2ccccc2)cc1`, 5.41. As for `CC1OC(=O)CC2C(C(=O)O)=CC3(O)CC(C)(C)CC123` (stereo unspecified), the “cell shape (Z-score)” value amounted to 2.24. As to `O=c1cc(-c2ccc(O)cc2)oc2c(C3OCC(O)C(O)C3O)c(O)c(C3OC(CO)C(O)C(O)C3O)c(O)c12` (stereo unspecified), the “cell shape (Z-score)” value was -0.877. Consider `Cc1cc(=O)n(-c2ccccc2)n1C`, for which the “cell shape (Z-score)” value worked out at 3.06. Regarding `COc1ccc(CO[C@H]2O[C@H](CO)[C@@H](O)[C@H](O)[C@H]2NC(C)=O)c2cc(C)oc12`, the “cell shape (Z-score)” value is -0.347 ± 0.37. In the case of `Clc1ccc(COC(Cn2ccnc2)c2ccc(Cl)cc2Cl)c(Cl)c1` (stereo unspecified), the “cell shape (Z-score)” value turned out to be 0.543. `CC(C)[C@@H]1CC[C@@H](C)C[C@@H]1P(=O)(c1ccccc1)c1ccccc1`: the “cell shape (Z-score)” value is 1.51. `CN(C)CCCSc1ccccc1NC(=O)/C=C/c1ccccc1`: the “cell shape (Z-score)” value is -0.586.

In the case of `CNC[C@@H]1Oc2ccc(NC(=O)C3CCCCC3)cc2C(=O)N([C@@H](C)CO)C[C@@H]1C`, the “cell shape (Z-score)” value worked out at 2.88. On to `C=CC(=O)N1CCC[C@@H](n2nc(-c3ccc(Oc4ccccc4)cc3)c3c(N)ncnc32)C1`, for which the “cell shape (Z-score)” value worked out at 10.2. As to `CC1(C)CC[C@]2(C(=O)O[C@@H]3O[C@H](CO)[C@@H](O)[C@H](O)[C@H]3O)CC[C@]3(C)C(=CCC4[C@@]5(C)C[C@@H](O)[C@H](O)C(C)(C)C5CC[C@]43C)C2[C@@H]1O` (stereo partly specified), the “cell shape (Z-score)” value is 1.97. Turning to `CC(=O)c1ccc(S(=O)(=O)NC(=O)NC2CCCCC2)cc1`, the “cell shape (Z-score)” value turned out to be 1.71.

As to `CC(=O)N(O)CCCCCNC(=O)CCC(=O)N(O)CCCCCNC(=O)CCC(=O)N(O)CCCCCN`, the “cell shape (Z-score)” value is 0.99. On to `Nc1ncn([C@H]2C[C@H](O)[C@@H](CO)O2)c(=O)n1`, for which the “cell shape (Z-score)” value was 0.463. On to `CC(C)(C(=O)c1cccnc1)c1cccnc1`, for which the “cell shape (Z-score)” value was found to be 3.09. For the compound `COc1ccc2oc(-c3ccccc3OC)cc(=O)c2c1`, the “cell shape (Z-score)” value worked out at 6.84.

Consider `COC(=O)c1cc(O)cc(O)c1C(=O)c1c(O)cc(C)cc1O`, for which the “cell shape (Z-score)” value was found to be 0.523. `CC1(C)O[C@@H]2CC3C4C[C@H](F)C5=CC(=O)C=C[C@]5(C)[C@@]4(F)[C@@H](O)C[C@]3(C)[C@]2(C(=O)CO)O1` (stereo partly specified): the “cell shape (Z-score)” value is -2.94. For `CC(=O)OCCNC(=O)c1cccnc1` the value was -3.76; for `COc1c(O)cc2c(c1O)C(=O)OC(C)C(O)c1c(O)c(O)c(OC)c(O)c1C(=O)OC(C)C2O` (stereo unspecified), 0.31. Next, `CC(C)=CCCC(C)(OC1OC(COC2OC(CO)C(O)C2O)C(O)C(O)C1O)C1CCC2(C)C1C(O)CC1C3(C)CCC(OC4OC(CO)C(O)C(O)C4OC4OC(CO)C(O)C(O)C4O)C(C)(C)C3CCC12C` (stereo unspecified): -0.485; `COc1ccc(-c2ccc3c(N4CCOCC4)nc(N4C[C@@H](C)O[C@@H](C)C4)nc3n2)cc1CO`: 0.131; `C/C=N/N(C)C=O`: 0.886. Take `CN(Cc1cnc2nc(N)nc(N)c2n1)c1ccc(C(=O)NC(CCC(=O)O)C(=O)O)cc1` (stereo unspecified): the “cell shape (Z-score)” value worked out at 4.47. As for `CCOC(=O)C1=CC2(CC)CCCN3CCc4c(n1c1ccccc41)C32` (stereo unspecified), the “cell shape (Z-score)” value came out at 0.205. Next, `CCC(NC(C)C)C(O)c1ccc(O)c(O)c1` (stereo unspecified): 2.97; `CC(C)NC[C@H](O)COc1ccc(CC(N)=O)cc1`: 3.01; `O=C(O)C=Cc1ccc(Cn2ccnc2)cc1`: -1.31.

For the compound `N#CC(=Cc1ccc(O)c(O)c1)C(N)=O`, the “cell shape (Z-score)” value turned out to be 0.0388.

Turning to `CCC(=C/[C@H](C)C/C=C/C(C)=C/[C@@H](C)C(=O)[C@@H](C)[C@H](O)[C@@H](C)C/C(C)=C/C(=O)O)/C=C/[C@@H]1OC(=O)C=C[C@@H]1C`, the “cell shape (Z-score)” value is 5.4.

Regarding `CCC(C)C(=O)O[C@H]1C[C@H](O)C=C2C=C[C@H](C)[C@H](CC[C@@H](O)C[C@@H](O)CC(=O)O)C21` (stereo partly specified), the “cell shape (Z-score)” value is -0.754. Next, `COc1cc2ccc(=O)oc2c(O[C@@H]2O[C@H](CO)[C@@H](O)[C@H](O)[C@H]2O)c1O`: -0.0817; `CCOC(=O)C(C)(C)Oc1ccc(Cl)cc1`: 1.93; `CN1CCN(C2=Nc3ccccc3Sc3ccc(Cl)cc32)CC1`: 0.462. Consider `CNC(=O)C1OC(n2cnc3c(NCc4cccc(I)c4)ncnc32)C(O)C1O` (stereo unspecified), for which the “cell shape (Z-score)” value was 0.489. `C=C1[C@H]2CC[C@]3(O)[C@@](CC[C@@H]4[C@](C)(C(=O)O)CCC[C@]43C)(C2)[C@H]1OC(=O)/C(C)=C\C`: the “cell shape (Z-score)” value is -0.341. With `COc1ccc2[nH]c(I)c(CCNC(C)=O)c2c1`, the “cell shape (Z-score)” value came to 4.27. Consider `CC1(C)CN=C(N2CCN(c3ncnc4sc5c(c34)CCCC5)CC2)S1`, for which the “cell shape (Z-score)” value stood at 3.14. As for `CC(C)(O)CCCC(C)(O)c1ccc(C(=O)O)cc1O` (stereo unspecified), the “cell shape (Z-score)” value was 1.84. As for `COC(=O)[C@H]1CC[C@H](OC(C)=O)[C@]2(C)CC[C@@H](C(C)C)[C@@H](OC(=O)/C=C/c3ccccc3)C12` (stereo partly specified), the “cell shape (Z-score)” value came out at 2.65.

`Cn1cc(C2=C(c3ccc(Cl)cc3Cl)C(=O)NC2=O)c2ccccc21`: the “cell shape (Z-score)” value is -0.822. Turning to `CC(Cc1ccccc1)(NC(=O)CN)c1ccccc1` (stereo unspecified), the “cell shape (Z-score)” value turned out to be 2.31.

On to `Clc1ccc(C(Cn2ccnc2)OCc2ccsc2Cl)c(Cl)c1` (stereo unspecified), for which the “cell shape (Z-score)” value came to 8.95. Turning to `C=C(NC(=O)C(=C)NC(=O)c1csc(C2=N[C@H]3c4csc(n4)[C@H]4NC(=O)c5csc(n5)[C@H]([C@@](C)(O)[C@@H](C)O)NC(=O)[C@H]5CSC(=N5)C(=CC)NC(=O)[C@H]([C@@H](C)O)NC(=O)c5csc(n5)[C@]3(CC2)NC(=O)[C@H](C)NC(=O)C(=C)NC(=O)[C@H](C)NC(=O)[C@H](C(C)CC)N[C@@H]2C=Cc3c([C@H](C)O)cc(nc3[C@H]2O)C(=O)O[C@@H]4C)n1)C(N)=O` (stereo partly specified), the “cell shape (Z-score)” value is -6.13.
